{
  "sequences": {"note": "Protein sequences, listed by entry. Tags and fused reporters are not part of them.", "UniProt Q9Y572": "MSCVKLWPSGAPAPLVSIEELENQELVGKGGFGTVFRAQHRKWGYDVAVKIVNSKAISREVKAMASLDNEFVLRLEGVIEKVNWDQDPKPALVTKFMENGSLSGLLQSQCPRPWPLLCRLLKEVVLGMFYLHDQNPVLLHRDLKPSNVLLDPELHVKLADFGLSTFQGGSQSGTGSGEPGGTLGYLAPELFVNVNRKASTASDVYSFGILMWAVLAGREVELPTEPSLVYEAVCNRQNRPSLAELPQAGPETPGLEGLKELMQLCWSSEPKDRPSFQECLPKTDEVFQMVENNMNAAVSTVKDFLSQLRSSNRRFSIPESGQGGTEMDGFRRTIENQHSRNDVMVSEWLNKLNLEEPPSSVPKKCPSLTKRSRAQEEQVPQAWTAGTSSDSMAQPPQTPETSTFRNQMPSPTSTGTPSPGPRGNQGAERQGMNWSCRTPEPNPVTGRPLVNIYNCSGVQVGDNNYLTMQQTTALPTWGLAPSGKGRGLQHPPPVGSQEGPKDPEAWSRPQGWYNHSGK", "UniProt Q13546": "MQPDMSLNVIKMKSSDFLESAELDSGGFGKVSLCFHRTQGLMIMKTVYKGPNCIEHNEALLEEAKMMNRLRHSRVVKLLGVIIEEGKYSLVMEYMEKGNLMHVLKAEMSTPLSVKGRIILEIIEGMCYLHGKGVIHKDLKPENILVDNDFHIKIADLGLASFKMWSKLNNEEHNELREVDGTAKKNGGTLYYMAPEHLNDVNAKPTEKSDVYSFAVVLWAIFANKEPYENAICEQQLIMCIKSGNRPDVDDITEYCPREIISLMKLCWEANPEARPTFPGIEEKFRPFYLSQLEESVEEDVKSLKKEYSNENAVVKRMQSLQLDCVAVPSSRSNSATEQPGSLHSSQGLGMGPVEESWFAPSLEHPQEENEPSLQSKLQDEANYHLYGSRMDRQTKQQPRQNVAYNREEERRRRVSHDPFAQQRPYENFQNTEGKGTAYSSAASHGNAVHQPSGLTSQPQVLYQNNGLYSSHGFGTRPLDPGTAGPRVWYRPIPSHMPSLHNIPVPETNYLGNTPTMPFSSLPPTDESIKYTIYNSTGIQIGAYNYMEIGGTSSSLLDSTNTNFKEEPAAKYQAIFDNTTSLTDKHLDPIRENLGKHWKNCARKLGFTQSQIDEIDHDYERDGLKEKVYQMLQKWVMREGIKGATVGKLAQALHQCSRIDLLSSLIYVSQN"},
  "source": "paper PMC9137164",
  "target": "RIP3 (human (endogenous in SH-SY5Y)) (UniProt Q9Y572)",
  "experiment": "co-IP; endogenous proteins in SH-SY5Y lysate; antibody on Protein A/G magnetic beads, western blot; cells normal, OGD/R, OGD/R + NAC, Drp1-S616A or Drp1-S616D, CIRI-derived exosomes",
  "note": "Results are given in words; binding and its absence hold for the method and conditions named. Binding seen in cells or lysates may run through a third protein. Some binding calls cover weakened binding; strength is not graded here.",
  "data": [
    {"substance": "RIP1 (from UniProt Q13546 1-671)", "values": [
      {"measurement": "binding", "value": "binds"}
    ]}
  ]
}
